# This is one part of the list.
# B1: 4F2hc (Homo sapiens), P08195 (protein)
# chain: WWHTGALYRIGDLQAFQGHGAGNLAGLKGRLDYLSSLKVKGLVLGPIHKNQKDDVAQTDLLQIDPNFGSKEDFDSLLQSAKKKSIRVILDLTPNYRGENSWFSTQVDTVATKVKDALEFWLQAGVDGFQVRDIENLKDASSFLAEWQNITKGFSEDRLLIAGTNSSDLQQILSLLESNKDLLLTSSYLSDSGSTGEHTKSLVTQYLNATGNRWCSWSLSQARLLTSFLPAQLLRLYQLMLFTLPGTPVFSYGDEIGLDAAALPGQPMEAPVMLWDESSFPDIPGAVSANMTVKGQSEDPGSLLSLFRRLSDQRSKERSLLHGDFHAFSAGPGLFSYIRHWDQNERFLVVLNFGDVGLSAGLQASDLPASASLPAKADLLLSTQPGREEGSPLELERLKLEPHEGLLLRFPYAA
# How the values were obtained:
# Experiment in all cases: glycan array binding signal (z-score within array); higher = stronger binding
# Conditions in all cases: glycan notation: IUPAC condensed, linker removed
# [1] = biological target: Neu5Ac(a2-6)Gal(b1-4)Glc
# Outline: (§1)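 The binding signal is a Z-score computed within each array and averaged over linkers. Arrays of the same protein sequence at different concentrations or buffers were also averaged together. Data originate from 3228 arrays in the Consortium for Functional Glycomics database, kept only where the protein sequence was available.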
# [2] = biological target: Neu5Ac(a2-6)Gal(b1-4)GlcNAc
# Outline: as §1
# [3] = biological target: Neu5Ac(a2-6)Gal(b1-4)GlcNAc(b1-2)Man(a1-3)Man(b1-4)GlcNAc(b1-4)GlcNAc
# Outline: as §1
# [4] = biological target: Neu5Ac(a2-6)Gal(b1-4)GlcNAc(b1-2)Man(a1-3)[Gal(b1-4)GlcNAc(b1-2)Man(a1-6)]Man(b1-4)GlcNAc(b1-4)GlcNAc
# Outline: as §1
# [5] = biological target: Neu5Ac(a2-6)Gal(b1-4)GlcNAc(b1-2)Man(a1-3)[GlcNAc(b1-2)Man(a1-6)]Man(b1-4)GlcNAc(b1-4)GlcNAc
# Outline: as §1
# [6] = biological target: Neu5Ac(a2-6)Gal(b1-4)GlcNAc(b1-2)Man(a1-3)[GlcNAc(b1-2)Man(b1-4)GlcNAc(b1-2)Man(a1-6)]Man(b1-4)GlcNAc(b1-4)GlcNAc
# Outline: as §1
# [7] = biological target: Neu5Ac(a2-6)Gal(b1-4)GlcNAc(b1-2)Man(a1-3)[Man(a1-6)]Man(b1-4)GlcNAc(b1-4)GlcNAc
# Outline: as §1
# [8] = biological target: Neu5Ac(a2-6)Gal(b1-4)GlcNAc(b1-2)Man(a1-3)[Neu5Ac(a2-6)Gal(b1-4)GlcNAc(b1-2)Man(a1-6)]Man(b1-4)GlcNAc(b1-4)GlcNAc
# Outline: as §1
# [9] = biological target: Neu5Ac(a2-6)Gal(b1-4)GlcNAc(b1-2)Man(a1-6)Man(b1-4)GlcNAc(b1-4)GlcNAc
# Outline: as §1
# [10] = biological target: Neu5Ac(a2-6)Gal(b1-4)GlcNAc(b1-2)Man(a1-6)[Gal(b1-4)GlcNAc(b1-2)Man(a1-3)]Man(b1-4)GlcNAc(b1-4)GlcNAc
# Outline: as §1
# [11] = biological target: Neu5Ac(a2-6)Gal(b1-4)GlcNAc(b1-2)Man(a1-6)[GlcNAc(b1-2)Man(a1-3)]Man(b1-4)GlcNAc(b1-4)GlcNAc
# Outline: as §1
# [12] = biological target: Neu5Ac(a2-6)Gal(b1-4)GlcNAc(b1-2)Man(a1-6)[Man(a1-3)]Man(b1-4)GlcNAc(b1-4)GlcNAc
# Outline: as §1
# [13] = biological target: Neu5Ac(a2-6)Gal(b1-4)GlcNAc(b1-3)Gal(b1-3)GlcNAc
# Outline: as §1
# [14] = biological target: Neu5Ac(a2-6)Gal(b1-4)GlcNAc(b1-3)Gal(b1-4)GlcNAc
# Outline: as §1
# [15] = biological target: Neu5Ac(a2-6)Gal(b1-4)GlcNAc(b1-3)Gal(b1-4)GlcNAc(b1-3)Gal(b1-4)GlcNAc
# Outline: as §1
# [16] = biological target: Neu5Ac(a2-6)Gal(b1-4)GlcNAc(b1-3)Gal(b1-4)[Fuc(a1-3)]GlcNAc(b1-3)Gal(b1-4)[Fuc(a1-3)]GlcNAc
# Outline: as §1
# [17] = biological target: Neu5Ac(a2-6)Gal(b1-4)GlcNAc(b1-3)GalNAc
# Outline: as §1
# [18] = biological target: Neu5Ac(a2-6)Gal(b1-4)GlcNAc6S
# Outline: as §1
# [19] = biological target: Neu5Ac(a2-6)GalNAc
# Outline: as §1
# [20] = biological target: Neu5Ac(a2-6)GalNAc(b1-4)GlcNAc
# Outline: as §1
# [21] = biological target: Neu5Ac(a2-6)GlcNAc(b1-4)GlcNAc
# Outline: as §1
# [22] = biological target: Neu5Ac(a2-6)GlcNAc(b1-4)GlcNAc(b1-4)GlcNAc
# Outline: as §1
# [23] = biological target: Neu5Ac(a2-8)Neu5Ac
# Outline: as §1
# [24] = biological target: Neu5Ac(a2-8)Neu5Ac(a2-3)Gal(b1-4)Glc
# Outline: as §1
# [25] = biological target: Neu5Ac(a2-8)Neu5Ac(a2-3)[GalNAc(b1-4)]Gal(b1-4)Glc
# Outline: as §1
# [26] = biological target: Neu5Ac(a2-8)Neu5Ac(a2-8)Neu5Ac
# Outline: as §1
# [27] = biological target: Neu5Ac(a2-8)Neu5Ac(a2-8)Neu5Ac(a2-3)Gal(b1-4)Glc
# Outline: as §1
# [28] = biological target: Neu5Ac(a2-8)Neu5Ac(a2-8)Neu5Ac(a2-3)[GalNAc(b1-4)]Gal(b1-4)Glc
# Outline: as §1
# [29] = biological target: Neu5Ac(a2-8)Neu5Ac(a2-8)Neu5Ac(a2-8)Neu5Ac(a2-3)[GalNAc(b1-4)]Gal(b1-4)Glc
# Outline: as §1
# [30] = biological target: Neu5Ac(b2-6)Gal(b1-4)GlcNAc
# Outline: as §1
# [31] = biological target: Neu5Ac(b2-6)GalNAc
# Outline: as §1
# [32] = biological target: Neu5Ac9Ac(a2-3)Gal(b1-3)GlcNAc
# Outline: as §1
# [33] = biological target: Neu5Ac9Ac(a2-3)Gal(b1-4)GlcNAc
# Outline: as §1
# [34] = biological target: Neu5Ac9Ac(a2-6)Gal(b1-4)GlcNAc
# Outline: as §1
# [35] = biological target: Neu5Gc(a2-3)Gal(b1-3)GlcNAc
# Outline: as §1
# [36] = biological target: Neu5Gc(a2-3)Gal(b1-3)[Fuc(a1-4)]GlcNAc
# Outline: as §1
# [37] = biological target: Neu5Gc(a2-3)Gal(b1-4)Glc
# Outline: as §1
# [38] = biological target: Neu5Gc(a2-3)Gal(b1-4)GlcNAc
# Outline: as §1
# [39] = biological target: Neu5Gc(a2-3)Gal(b1-4)[Fuc(a1-3)]GlcNAc
# Outline: as §1
# [40] = biological target: Neu5Gc(a2-6)Gal(b1-4)GlcNAc
# Outline: as §1
# [41] = biological target: Neu5Gc(a2-6)GalNAc
# Outline: as §1
# [42] = biological target: Neu5Gc(b2-6)Gal(b1-4)GlcNAc
# Outline: as §1
binder,measurement,setting,value
B1,glycan array binding signal (z-score),[1],-0.089
same,glycan array binding signal (z-score),[2],-0.542
same,glycan array binding signal (z-score),[3],0.328
same,glycan array binding signal (z-score),[4],-0.097
same,glycan array binding signal (z-score),[5],-0.141
same,glycan array binding signal (z-score),[6],-0.786
same,glycan array binding signal (z-score),[7],0.082
same,glycan array binding signal (z-score),[8],-0.17
same,glycan array binding signal (z-score),[9],-0.35
same,glycan array binding signal (z-score),[10],-0.048
same,glycan array binding signal (z-score),[11],-1.01
same,glycan array binding signal (z-score),[12],5.26
same,glycan array binding signal (z-score),[13],-1.04
same,glycan array binding signal (z-score),[14],-0.747
same,glycan array binding signal (z-score),[15],-1.15
same,glycan array binding signal (z-score),[16],-1.09
same,glycan array binding signal (z-score),[17],-0.83
same,glycan array binding signal (z-score),[18],-0.493
same,glycan array binding signal (z-score),[19],0.974
same,glycan array binding signal (z-score),[20],-0.846
same,glycan array binding signal (z-score),[21],-1.02
same,glycan array binding signal (z-score),[22],-0.956
same,glycan array binding signal (z-score),[23],0.293
same,glycan array binding signal (z-score),[24],-0.288
same,glycan array binding signal (z-score),[25],-0.55
same,glycan array binding signal (z-score),[26],-0.566
same,glycan array binding signal (z-score),[27],-0.234
same,glycan array binding signal (z-score),[28],-0.76
same,glycan array binding signal (z-score),[29],-0.064
same,glycan array binding signal (z-score),[30],-0.505
same,glycan array binding signal (z-score),[31],-0.341
same,glycan array binding signal (z-score),[32],-0.273
same,glycan array binding signal (z-score),[33],-0.22
same,glycan array binding signal (z-score),[34],0.921
same,glycan array binding signal (z-score),[35],-0.245
same,glycan array binding signal (z-score),[36],-0.292
same,glycan array binding signal (z-score),[37],0.574
same,glycan array binding signal (z-score),[38],0.349
same,glycan array binding signal (z-score),[39],-0.913
same,glycan array binding signal (z-score),[40],-0.991
same,glycan array binding signal (z-score),[41],0.027
same,glycan array binding signal (z-score),[42],0.919

# Retrieved one by one from the entries so far, two records:
binder,measurement,setting,value
B1,glycan array binding signal (z-score),[15],-1.15
same,glycan array binding signal (z-score),[9],-0.35

# Source: the supplement of paper PMC8728848
